At least one peptide structure holds a part that was inferred or is arguable (an end, a ring closure or a residue). Residues, ends and D or L forms follow the SMILES beside them. *: point of attachment. Palmitoyl = CCCCCCCCCCCCCCCC(=O)*
Legend:
[1] = system: neural progenitor cells (NPCs); experiment: Cell viability/cytotoxicity (LIVE/DEAD) of NPCs encapsulated in PA gels; type: cell-based, mouse; conditions: encapsulated NPCs vs PDL
[2] = system: neural progenitor cells (NPCs); experiment: Immunocytochemistry of NPC differentiation (β-tubulin III neurons, GFAP astrocytes) in 3D scaffolds; type: cell-based, mouse
Experimental: (§1) Cell Culture and In Vitro Encapsulation in IKVAV-PA nano-networks. Neural progenitor cells (NPCs) were cultured as previously described (See, e.g., Zhu et al., J. Neurosci. Res. 59, 312 (2000)). Briefly, the cortices of E13 mouse embryos were dissected and plated on un-treated petri dishes in DMEM/F12 media supplemented with bFGF (10 ng/ml). After four days, mechanically and enzymatically dissociated NPCs and undissociated neurospheres (e.g., undissociated NPC aggregates) were plated onto appropriate substrates (e.g., encapsulated in IKVAV-peptide amphiphile (PA), EQS-PA, or alginate gels, or cultured on laminin, poly-D-lysine, or IKVAV peptide coated cover slips). In all cases this was taken as 0 days in vitro.
Encapsulation of NPC in IKVAV- and EQS-PA networks was achieved by first aliquoting 100 μl of PA solution onto a 12 mm cover slip in a 24 well culture plate, forming a self-contained drop. 100 μl of cell suspension in culture media was then pipetted into the drop of PA solution, gentling swirling the pipette tip as the cell suspension was being introduced, forming PA gels. Gels were allowed to sit undisturbed in the incubator (at 37° C. and 5% CO2, with 95% humidity) for >2 hrs., after which 300 μl of NPC culture media was added to the wells, completely submerging the PA gels. Plates were then returned to the incubator. Control 12 mm cover slips were coated with PDL (Sigma, 1 mg/50 ml DMEM) or laminin/PDL (Sigma, 1 mg/100 ml DMEM) and left to sit and dry in a flow hood for >1 hour. Soluble IKVAV peptide was spin coated onto cover slips and allowed to dry overnight. […]
Immunocytochemistry. […] Cell imaging was done with a high resolution Cool Snap camera attached to a Nikon TE-2000 fluorescence microscope interfaced with a PC running MetaView imaging software, or an Axiocam camera attached to a Zeiss Axiovert 200 fluorescence microscope interfaced with a PC running AxioVision imaging software.
(§2) Cell Counts. Randomly selected fields of view were imaged for different experimental conditions and cells counted using ImageJ (Scion Corporation) morphometric analysis software. […]

[3] = system: neural progenitor cells (NPCs); experiment: Cell body area and neurite length of neurons differentiated from NPCs; type: cell-based, mouse; conditions: for cell body area of differentiated neurons vs controls: 1 and 7 days
Experimental: as §1
Encapsulation of NPC in IKVAV- and EQS-PA networks was achieved by first aliquoting 100 μl of PA solution onto a 12 mm cover slip in a 24 well culture plate, forming a self-contained drop. 100 μl of cell suspension in culture media was then pipetted into the drop of PA solution, gentling swirling the pipette tip as the cell suspension was being introduced, forming PA gels. Gels were allowed to sit undisturbed in the incubator (at 37° C. and 5% CO2, with 95% humidity) for >2 hrs., after which 300 μl of NPC culture media was added to the wells, completely submerging the PA gels. Plates were then returned to the incubator. Control 12 mm cover slips were coated with PDL (Sigma, 1 mg/50 ml DMEM) or laminin/PDL (Sigma, 1 mg/100 ml DMEM) and left to sit and dry in a flow hood for >1 hour. Soluble IKVAV peptide was spin coated onto cover slips and allowed to dry overnight. For two dimensional controls, 300 μl of NPC culture media was added to the wells, and 100 μl of NPC cell suspension was aliquoted onto the center of the cover slip, followed by manual shaking of the culture plates to ensure a well distributed cell density. Alginate solutions at 1 wt % were made by mixing 1 g of alginate in 100 ml of physiological buffered saline (PBS) and left on a shaker overnight to allow it to dissolve. 100 μl of 1 wt % alginate was mixed with 100 μl of NPC cell suspension in culture media containing no exogenous calcium (which is normally required to induce alginate gelation), yielding 0.5 wt % alginate gels that would allow direct comparisons with the 0.5 wt % IKVAV-PA experimental gels. The encapsulated NPC in the alginate were returned to the incubator for >2 hours, by which time they had formed weak but stable gels. The culture wells were then filled with 300 μl of culture media, enough to submerge the alginate gels, and returned to the incubator.
Immunocytochemistry. The culture media from encapsulated NPCs was removed and the encapsulated cells fixed with 4% paraformaldehyde for 20 minutes at room temperature by submerging the entire PA-gel in fixative. Incubation for 5 minutes with 0.2% Triton-X (toctylphenoxyplyethoxyethanol) was preceded by two washes with PBS. […] Cell imaging was done with a high resolution Cool Snap camera attached to a Nikon TE-2000 fluorescence microscope interfaced with a PC running MetaView imaging software, or an Axiocam camera attached to a Zeiss Axiovert 200 fluorescence microscope interfaced with a PC running AxioVision imaging software.
as §2

NPC neurospheres = experiment: Cell migration from encapsulated neurospheres within the nanofiber scaffold; type: cell-based, mouse
[4] = system: neural progenitor cells (NPCs); experiment: NPC differentiation on two-dimensional coated substrates; type: cell-based, mouse; conditions: cells plated for 1 day
Experimental: Two-dimensional cultures. For IKVAV peptide experiments, the same 12 mm glass coverslips used for the three-dimensional experiments were soaked in ethanol to encourage hydrophilicity, then spin-coated with 50 μL of a 1 mg/mL IKVAV peptide solution. For IKVAV-PA experiments, the coverslips were coated with PDL (e.g., to encourage adsorption) and subsequently with IKVAV-PA solution. In both cases, the cover slips were allowed to dry overnight and then washed three times with distilled water to remove weakly adherent material before the addition of cell suspension.
NPC differentiation on a two dimensional (2D) substrate coated with IKVAV-PA nanofibers was investigated.

[5] = Gelation and rheology of peptide amphiphiles; type: physicochemical; conditions: 1 wt % PA aqueous solution mixed 1:1 with NPC suspensions in media or physiological fluids

## CCCCCCCCCCCCCCCC(=O)N[C@@H](C)C(=O)N[C@@H](C)C(=O)N[C@@H](C)C(=O)N[C@@H](C)C(=O)NCC(=O)NCC(=O)NCC(=O)N[C@@H](CCC(=O)O)C(=O)N[C@H](C(=O)N[C@@H](CCCCN)C(=O)N[C@H](C(=O)N[C@@H](C)C(=O)N[C@H](C(=O)O)C(C)C)C(C)C)[C@@H](C)CC [IKVAV-PA] (Palmitoyl-AAAAGGGEIKVAV-OH)
[1]
  viability relative to cells cultured on poly(D-lysine): no significant difference in viability
[2]
  differentiation of progenitor cells into neurons relative to PDL- or laminin-coated substrates: promoted greater and faster differentiation of the progenitor cells into neurons
[2]; after 1 day
  total cells staining positive for β-tubulin (neurons): about 35%
[2]; after 7 days
  GFAP+ astrocyte differentiation: < 5%
[3]; listed as IKVAV-PA gels
  cell body area of differentiated neurons vs controls: significantly larger than those of controls
[3]; listed as nanofiber scaffold
  cell body area of differentiated neurons vs controls: significantly greater
[3]; after 1 day
  neurite length (mean ±SD): about 57±26 μm
[3]; after 7 days
  neurite length compared with cells on laminin-covered substrates: no statistical difference in neurite length
[3]; after 7 days, P <0.01
  process length compared with cells on PDL substrates: significantly longer processes
NPC neurospheres; 98% as opposed to 99.5% water
  survival of NPCs in denser, more rigid networks: did not survive
NPC neurospheres; encapsulated neurosphere
  neurite outgrowth compared to EQS-PA: greater degree of neurite outgrowth
NPC neurospheres; tracked for 14 days
  migration of cells from neurospheres: statistically significant as a function of time
[4]
  differentiation into neurons on 2D substrate: equally effective at inducing differentiation into neurons
[5]
  time to form gel-like solid: within seconds

— patent US20060247165A1, “Methods and compositions for encapsulation of cells” (priority 2005, published 2006)
